Article PMC6465933, “Direct Binding of the Flexible C-Terminal Segment of Periaxin to β4 Integrin Suggests a Molecular Basis for CMT4F” (Frontiers in Molecular Neuroscience, 2019)
Results are given in words; binding and its absence hold for the method and conditions named. For some assays here: In cells and extracts the contact can be indirect. Some binding calls cover weakened binding; strength is not graded here. For some assays here: Where a sequence is shown, tags or fusion partners need not be part of it. Blank lines part the entries; values can stand above or below the molecule they belong to.

What was measured:
[1] = molecular target: T1, PRX expressed in HEK293 cells (UniProt Q63425); test: co-IP; HEK293 cells coexpressing β4 integrin, α6 integrin and PRX; IP with β4 integrin or PRX antibodies; Western blot
T1 sequence: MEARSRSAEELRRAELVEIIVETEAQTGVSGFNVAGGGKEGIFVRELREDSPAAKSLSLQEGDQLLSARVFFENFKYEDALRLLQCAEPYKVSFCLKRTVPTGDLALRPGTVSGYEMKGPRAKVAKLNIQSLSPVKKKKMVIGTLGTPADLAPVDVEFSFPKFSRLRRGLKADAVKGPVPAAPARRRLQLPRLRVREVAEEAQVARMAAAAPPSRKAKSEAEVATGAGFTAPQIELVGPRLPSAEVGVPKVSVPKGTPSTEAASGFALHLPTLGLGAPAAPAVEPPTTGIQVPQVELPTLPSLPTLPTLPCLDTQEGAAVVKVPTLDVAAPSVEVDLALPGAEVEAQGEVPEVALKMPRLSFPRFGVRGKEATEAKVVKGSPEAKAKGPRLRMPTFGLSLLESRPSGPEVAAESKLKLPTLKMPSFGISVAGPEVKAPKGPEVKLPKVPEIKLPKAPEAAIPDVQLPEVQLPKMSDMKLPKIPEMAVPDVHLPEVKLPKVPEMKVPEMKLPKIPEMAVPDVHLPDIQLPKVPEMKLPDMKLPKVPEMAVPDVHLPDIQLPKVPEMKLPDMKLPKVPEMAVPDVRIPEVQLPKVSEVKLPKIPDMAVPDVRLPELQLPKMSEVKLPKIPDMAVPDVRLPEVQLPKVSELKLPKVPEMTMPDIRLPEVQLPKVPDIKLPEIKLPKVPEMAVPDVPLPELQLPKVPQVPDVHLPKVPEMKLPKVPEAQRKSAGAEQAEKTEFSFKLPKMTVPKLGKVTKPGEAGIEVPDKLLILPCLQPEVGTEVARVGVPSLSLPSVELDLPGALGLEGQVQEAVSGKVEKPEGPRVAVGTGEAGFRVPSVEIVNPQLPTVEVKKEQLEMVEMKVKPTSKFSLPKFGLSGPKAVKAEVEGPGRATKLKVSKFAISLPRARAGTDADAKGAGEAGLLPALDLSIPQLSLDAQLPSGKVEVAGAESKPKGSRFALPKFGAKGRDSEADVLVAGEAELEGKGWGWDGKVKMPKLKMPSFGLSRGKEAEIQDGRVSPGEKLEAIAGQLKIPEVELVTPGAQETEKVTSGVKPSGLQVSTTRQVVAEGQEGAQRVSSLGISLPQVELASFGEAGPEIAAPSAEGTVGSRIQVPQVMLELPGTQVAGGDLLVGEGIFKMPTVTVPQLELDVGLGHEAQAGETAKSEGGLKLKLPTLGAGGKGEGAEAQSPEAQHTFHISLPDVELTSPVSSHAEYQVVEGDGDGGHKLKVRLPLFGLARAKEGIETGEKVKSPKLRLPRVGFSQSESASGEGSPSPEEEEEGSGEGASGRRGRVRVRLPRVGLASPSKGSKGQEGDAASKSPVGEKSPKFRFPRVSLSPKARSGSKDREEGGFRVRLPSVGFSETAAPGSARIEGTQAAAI

[2] = molecular target: T2, GST-β4-FNIII-3 fusion protein (β4 integrin amino acids 1512–1593) (UniProt Q64632); test: pull-down; GST fusion protein bound to Glutathione-Sepharose incubated with a sciatic nerve lysate; bound proteins detected by Western blot; only the target purified
T2 sequence: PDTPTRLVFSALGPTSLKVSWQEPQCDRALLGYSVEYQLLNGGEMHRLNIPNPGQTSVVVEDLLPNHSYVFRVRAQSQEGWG

[3] = molecular target: T3, His-tagged rat β4-FNIII-3 (β4 integrin amino acids 1512–1602) (rat) (UniProt Q64632); test: condition: 1 mM peptide in the syringe, 100 μM His-β4-FNIII-3 in the cell; ITC; 1 mM peptide in the syringe, 100 μM His-β4-FNIII-3 in the cell, 25°C; both purified
T3 sequence: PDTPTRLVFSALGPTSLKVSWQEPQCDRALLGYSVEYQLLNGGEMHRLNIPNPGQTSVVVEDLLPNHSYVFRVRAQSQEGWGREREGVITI

[4] = molecular target: rat β4 integrin, full length, expressed in HEK293 cells (rat) (UniProt Q64632); test: co-IP; HEK293 cells coexpressing β4 integrin, α6 integrin and PRX; IP with β4 integrin or PRX antibodies; Western blot

Molecule: rat β4 integrin, full length, expressed in HEK293 cells (from UniProt Q64632 28-1807) (receptor)
binding [1]: binds

Molecule: SGRRGRVRVRLPRVGLASPSK (N-terminal acetylation; C-terminal amidation) [PRX-C peptide 4 (residues 1290–1310)]
binding [3]: no binding

B2: PRX expressed in HEK293 cells (protein, UniProt Q63425 1-1383)
chain: T1 sequence
binding [4]: binds

Molecule: ASFGEAGPEIAAPSAEGTVG (N-terminal acetylation; C-terminal amidation) [PRX-C peptide 1 (residues 1091–1110)]
binding [3]: no binding

Molecule: RIQVPQVMLELPGTQVAGGDLL (N-terminal acetylation; C-terminal amidation) [PRX-C peptide 2 (residues 1112–1133)]
binding [3]: no binding

The remaining lines, values ahead:

binding [2]: binds
B1: L-PRX in sciatic nerve lysate (protein, UniProt O55103 1-1391)
chain: MEARSRSAEELRRAELVEIIVETEAQTGVSGFNVAGGGKEGIFVRELREDSPAAKSLSLQEGDQLLSARVFFENFKYEDALRLLQCAEPYKVSFCLKRTVPTGDLALRPGTVSGYEMKGPRAKVAKLNIQSLAPVKKKKMVTGALGTPADLAPVDVEFSFPKFSRLRRGLKAEAVKGPVPAAPARRRLQLPRLRVREVAEEAQVARMAAAAPPPRKAKAEAEAATGAGFTAPQIELVGPRLPSAEVGVPQVSVPKGTPSTEAASGFALHLPTLGLGAPAAPAVEPPATGIQVPQVELPTLPSLPTLPTLPCLDTQEGAAVVKVPTLDVAAPSMGVDLALPGAEVEAQGEVPEVALKMPRLSFPRFGIRGKEATEAKVVKGSPEAKAKGPRLRMPTFGLSLLEPRPSGPEAVAESKLKLPTLKMPSFGIGVAGPEVKAPTGPEVKLPKVPEVKLPKVPEAAIPDVQLPEVQLPKMSDMKLPKIPEMVVPDVRLPEVQLPKVPEMKVPEMKLPKWPEMAVPDVHLPDVQLPKVPEMKLPKVPEMAVPDVHLPDVQLPKVPEMKLPEMKLPKVPEMAVPDVRLPEVQLPKVSEVKLPKMPEMAVPDVHLPELQLPKMSEVKLPKMPEMAVPDVRLPEVQLPKVSEMKLPKMPEMTMPDIRLPEVQLPKVPDIKLPEMKLPEIKLPKVPDMAVPDVPLPELQLPKVSDIRLPEMQVSQVPEVQLPKMPEMKLSKVPEVQRKSAGAEQAKGTEFSFKLPKMTMPKLGKVGKPGEASIEVPDKLMTLPCLQPEVGTEASHVGVPSLSLPSVELDLPGALGLEGQVQEAVPGKVEKPEGPRVAVGVGEVGFRVPSVEIVTPQLPTVEVEKEQLEMVEMKVKPSSKFSLPKFGLSGPKAVKGEVEGPGRATKLKVSKFTISLPKARAGTEAEAKGAGEAGLLPALDLSIPQLSLDAQLPSGKVEVADSKPKSSRFALPKFGVKGRDSEADVLVAGEAELEGKGWGWDGKVKMPKLKMPSFGLSRGKEAETQDGRVSPGEKLEAIAGQLKIPAVELVTPGAQETEKVTSGVKPSGLQVSTTGQVVAEGQESVQRVSTLGISLPQVELASFGEAGPEIVAPSAEGTAGSRVQVPQVMLELPGTQVAGGDLLVGEGIFKMPTVTVPQLELDVGLGHEAQAGEAAKSEGGIKLKLPTLGTGSRGEGVEPQGPEAQRTFHLSLPDVELTSPVSSHAEYQVVEGDGDGGHKLKVRLPLFGLAKAKEGIEVGEKVKSPKLRLPRVGFSQSESVSGEGSPSPEEEEEGSGEGASSRRGRVRVRLPRVGLASPSKVSKGQEGDATSKSPVGEKSPKFRFPRVSLSPKARSGSRDREEGGFRVRLPSVGFSETAVPGSTRIEGTQAAAI

binding [3]: no binding
Molecule: GEGIFKMPTVTVPQLELDVGLGHEAQ (N-terminal acetylation; C-terminal amidation) [PRX-C peptide 3 (residues 1135–1160)]

binding [2]: binds
B3: dystrophin-related protein 2 in sciatic nerve lysate (protein, UniProt Q05AA6 1-957)
chain: MQPLVMQGCPYTLPRCHEWHAADRFHHSSSLRNTCPQPQVRAAVTIPAPPWDGAGDPCLSPKLLNGTVGATGPLEPSAMNLCWNEIKKKSHNLRARLEAFSDLSGKLQLPLREIIDWLSQKDEELSAQLPLQGDVALVQQEKETHAAFMEEVKSKGPYISSVLESAQAFLSQHPFEELEESQSESKDTSPRQRIQNLSRFVWKQATVASELWEKLTARCVDQHRHIEHTLEHLLEIQGAMEELSSTLTQAEGVRATWEPIGDLFIDSLPEHIQAIKLFKEEFSPVKDGVKLVNDLAHQLAISDVHLSMENSRALEQINIRWKQLQVSVAERLKQLQDAHRDFGPGSQHFLSTSVQVPWERAISPNKVPYYINHQAQTTCWDHPKMTELYQTLADLNNIKFSAYRTAMKLRRVQKALRLDLVTLTTALEIFNEHDLQASEHVMDVVEVIHCLTALYERLEEERGILVNVPLCVDMSLNWLLNVFDSGRSGKMRALSFKTGIACLCGTEVKEKLQYLFSQVANSGSQCDQRHLGALLHEAIQVPRQLGEVAAFGGSNVEPSVRSCFRFSTGKPVIEASQFLEWVNLEPQSMVWLAVLHRVTIAEQVKHQTKCSICRQCPIKGFRYRSLKQFNVDICQTCFLTGRASKGNKLHYPIMEYYTPTTSSENMRDFATTLKNKFRSKQYFSKHPQRGYLPVQSVLESDCSETPASSPMLPHADTHSRIEHFASRLAEMESQNCSFFNDSLSPDDSIDEDQYLLRHSSPITDREPAFGQQAPCSMATESKGELEKILAHLEDENRILQGELRRLKWQHEEAAEAPTLVEGSAEATPDHRNEELLAEARILRQHKSRLETRMQILEDHNKQLESQLQRLRELLLQPPSESDGNGSAGSSLASSPRQSEGSHPREKGQTTPDTEVADDVGSKSQDVSLCLEDIMEKLRHAFPSVRSSDVTANTLLAS
